The values that follow come from the supplement of paper PMC12819154, “High-throughput peptide-centric local stability assay extends protein–ligand identification to membrane proteins, tissues and bacteria” (Nature Structural & Molecular Biology, 2025).

Chains of the proteins cited; added tags and fusions are not shown. Lines headed by an entry give the natural chain unless they say otherwise; changes in a name come on top.
UniProt Q69YI7: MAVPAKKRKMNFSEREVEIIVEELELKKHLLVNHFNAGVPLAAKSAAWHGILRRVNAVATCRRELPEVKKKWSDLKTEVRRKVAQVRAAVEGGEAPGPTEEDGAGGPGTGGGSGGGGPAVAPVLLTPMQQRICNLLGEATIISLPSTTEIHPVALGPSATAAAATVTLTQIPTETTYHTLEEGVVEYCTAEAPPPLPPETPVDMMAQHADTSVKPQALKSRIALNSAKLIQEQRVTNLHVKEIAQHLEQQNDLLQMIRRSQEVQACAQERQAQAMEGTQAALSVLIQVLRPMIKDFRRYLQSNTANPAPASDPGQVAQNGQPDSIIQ
UniProt Q659A1: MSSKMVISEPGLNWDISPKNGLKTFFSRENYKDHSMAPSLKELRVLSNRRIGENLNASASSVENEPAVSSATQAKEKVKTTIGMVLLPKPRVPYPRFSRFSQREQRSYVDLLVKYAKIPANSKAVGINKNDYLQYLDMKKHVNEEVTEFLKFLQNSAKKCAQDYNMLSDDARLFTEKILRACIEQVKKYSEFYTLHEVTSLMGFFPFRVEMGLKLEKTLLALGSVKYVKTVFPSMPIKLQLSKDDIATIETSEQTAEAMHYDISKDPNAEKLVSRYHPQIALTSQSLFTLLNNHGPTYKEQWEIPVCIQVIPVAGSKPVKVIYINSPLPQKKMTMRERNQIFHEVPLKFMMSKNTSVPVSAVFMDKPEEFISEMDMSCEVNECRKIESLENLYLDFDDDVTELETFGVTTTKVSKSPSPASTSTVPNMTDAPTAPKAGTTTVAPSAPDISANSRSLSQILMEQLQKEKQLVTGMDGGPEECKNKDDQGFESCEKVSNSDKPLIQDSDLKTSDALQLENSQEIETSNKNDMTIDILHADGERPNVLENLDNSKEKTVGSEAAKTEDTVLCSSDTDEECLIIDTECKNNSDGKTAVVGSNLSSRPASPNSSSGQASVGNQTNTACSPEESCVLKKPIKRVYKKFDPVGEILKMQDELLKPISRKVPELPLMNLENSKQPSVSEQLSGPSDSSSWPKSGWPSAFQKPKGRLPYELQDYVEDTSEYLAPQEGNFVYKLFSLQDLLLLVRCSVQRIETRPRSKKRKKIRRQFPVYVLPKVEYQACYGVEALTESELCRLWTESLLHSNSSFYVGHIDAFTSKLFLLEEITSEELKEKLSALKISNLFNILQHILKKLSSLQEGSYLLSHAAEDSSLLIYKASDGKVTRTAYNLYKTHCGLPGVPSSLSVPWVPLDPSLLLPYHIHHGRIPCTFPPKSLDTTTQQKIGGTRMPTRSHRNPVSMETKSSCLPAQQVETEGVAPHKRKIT
UniProt Q6FI81: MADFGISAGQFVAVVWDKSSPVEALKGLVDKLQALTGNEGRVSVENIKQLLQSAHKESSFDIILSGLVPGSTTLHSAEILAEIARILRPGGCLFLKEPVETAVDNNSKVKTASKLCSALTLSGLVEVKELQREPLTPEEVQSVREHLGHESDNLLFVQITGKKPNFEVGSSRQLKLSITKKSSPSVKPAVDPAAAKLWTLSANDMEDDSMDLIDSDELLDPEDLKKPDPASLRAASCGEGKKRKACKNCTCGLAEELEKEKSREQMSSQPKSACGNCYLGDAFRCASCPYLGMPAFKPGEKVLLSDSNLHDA
UniProt Q6NSJ2: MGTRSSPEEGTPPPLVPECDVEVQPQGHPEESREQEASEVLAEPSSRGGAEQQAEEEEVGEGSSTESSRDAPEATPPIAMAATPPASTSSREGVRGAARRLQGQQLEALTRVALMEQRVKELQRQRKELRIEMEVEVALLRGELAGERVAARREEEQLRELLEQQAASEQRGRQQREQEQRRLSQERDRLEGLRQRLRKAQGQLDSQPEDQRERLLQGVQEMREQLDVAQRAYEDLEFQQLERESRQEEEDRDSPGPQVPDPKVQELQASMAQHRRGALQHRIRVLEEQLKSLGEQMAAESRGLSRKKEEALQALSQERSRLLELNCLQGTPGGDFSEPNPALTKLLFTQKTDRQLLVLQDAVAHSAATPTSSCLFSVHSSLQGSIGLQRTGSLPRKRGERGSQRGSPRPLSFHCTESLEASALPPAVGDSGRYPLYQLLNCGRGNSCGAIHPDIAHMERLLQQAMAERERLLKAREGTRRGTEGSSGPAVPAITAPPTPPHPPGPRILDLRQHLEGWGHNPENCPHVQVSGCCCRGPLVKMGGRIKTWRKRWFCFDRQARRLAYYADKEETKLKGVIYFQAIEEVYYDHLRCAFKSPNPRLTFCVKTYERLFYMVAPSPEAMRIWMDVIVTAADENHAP
UniProt Q6IEG0: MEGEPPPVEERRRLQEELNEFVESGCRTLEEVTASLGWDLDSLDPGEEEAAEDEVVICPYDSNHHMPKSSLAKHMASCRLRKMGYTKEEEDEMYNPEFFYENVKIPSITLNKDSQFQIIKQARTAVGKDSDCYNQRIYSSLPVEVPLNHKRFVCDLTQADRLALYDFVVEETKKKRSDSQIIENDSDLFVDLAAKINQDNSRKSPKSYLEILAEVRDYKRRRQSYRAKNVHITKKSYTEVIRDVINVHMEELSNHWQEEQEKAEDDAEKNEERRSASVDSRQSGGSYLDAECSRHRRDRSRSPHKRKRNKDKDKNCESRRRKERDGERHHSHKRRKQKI
UniProt Q6PL18: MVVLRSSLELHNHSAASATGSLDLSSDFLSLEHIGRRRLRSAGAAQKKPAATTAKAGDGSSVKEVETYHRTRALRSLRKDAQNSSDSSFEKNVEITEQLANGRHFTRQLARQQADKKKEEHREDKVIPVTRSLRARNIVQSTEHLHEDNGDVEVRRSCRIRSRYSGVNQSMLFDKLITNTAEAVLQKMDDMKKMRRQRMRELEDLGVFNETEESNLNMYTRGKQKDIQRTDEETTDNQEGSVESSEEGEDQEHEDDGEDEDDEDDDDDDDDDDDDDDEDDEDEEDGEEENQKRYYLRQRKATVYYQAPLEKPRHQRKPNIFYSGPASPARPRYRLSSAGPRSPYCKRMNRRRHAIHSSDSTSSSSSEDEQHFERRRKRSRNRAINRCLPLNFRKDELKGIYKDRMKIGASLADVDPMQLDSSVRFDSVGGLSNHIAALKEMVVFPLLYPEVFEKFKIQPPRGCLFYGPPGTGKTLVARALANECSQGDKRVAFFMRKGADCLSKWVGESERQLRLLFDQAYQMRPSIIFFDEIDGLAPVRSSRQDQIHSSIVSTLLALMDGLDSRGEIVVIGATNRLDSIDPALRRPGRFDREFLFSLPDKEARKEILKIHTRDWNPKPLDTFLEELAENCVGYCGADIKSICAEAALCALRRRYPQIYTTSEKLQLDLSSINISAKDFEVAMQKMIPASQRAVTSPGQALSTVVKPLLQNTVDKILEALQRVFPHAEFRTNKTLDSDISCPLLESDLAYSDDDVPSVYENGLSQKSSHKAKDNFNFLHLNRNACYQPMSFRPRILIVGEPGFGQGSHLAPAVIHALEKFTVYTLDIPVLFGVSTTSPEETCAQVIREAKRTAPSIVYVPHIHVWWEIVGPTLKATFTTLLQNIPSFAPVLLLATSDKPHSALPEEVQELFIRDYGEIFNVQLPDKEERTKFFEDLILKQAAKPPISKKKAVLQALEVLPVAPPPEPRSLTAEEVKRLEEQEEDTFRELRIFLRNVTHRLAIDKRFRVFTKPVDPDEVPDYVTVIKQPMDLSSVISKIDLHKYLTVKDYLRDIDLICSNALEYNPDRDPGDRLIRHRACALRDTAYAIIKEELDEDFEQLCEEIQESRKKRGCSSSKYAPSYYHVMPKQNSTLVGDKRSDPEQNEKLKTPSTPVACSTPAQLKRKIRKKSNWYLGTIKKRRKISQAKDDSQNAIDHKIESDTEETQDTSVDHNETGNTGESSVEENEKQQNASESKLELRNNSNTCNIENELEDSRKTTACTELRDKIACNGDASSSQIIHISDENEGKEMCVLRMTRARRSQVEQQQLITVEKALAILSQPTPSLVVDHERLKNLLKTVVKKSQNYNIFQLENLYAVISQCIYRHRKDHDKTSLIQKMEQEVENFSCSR
UniProt Q68D86: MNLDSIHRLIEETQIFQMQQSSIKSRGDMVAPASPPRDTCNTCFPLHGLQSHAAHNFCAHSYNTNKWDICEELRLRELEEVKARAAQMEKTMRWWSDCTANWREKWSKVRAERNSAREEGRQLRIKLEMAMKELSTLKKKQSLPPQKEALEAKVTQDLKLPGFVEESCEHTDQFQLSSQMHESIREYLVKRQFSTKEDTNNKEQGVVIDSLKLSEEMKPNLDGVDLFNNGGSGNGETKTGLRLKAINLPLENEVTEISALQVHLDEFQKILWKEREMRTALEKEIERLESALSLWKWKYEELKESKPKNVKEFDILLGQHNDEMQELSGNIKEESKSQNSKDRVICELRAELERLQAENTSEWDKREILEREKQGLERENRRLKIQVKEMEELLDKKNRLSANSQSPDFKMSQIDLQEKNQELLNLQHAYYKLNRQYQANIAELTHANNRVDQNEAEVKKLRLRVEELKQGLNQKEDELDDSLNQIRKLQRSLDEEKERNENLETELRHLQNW
UniProt Q69YL0: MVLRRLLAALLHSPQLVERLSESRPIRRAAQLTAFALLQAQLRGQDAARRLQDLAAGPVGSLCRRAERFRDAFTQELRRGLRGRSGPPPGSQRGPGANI
UniProt Q5VZL5: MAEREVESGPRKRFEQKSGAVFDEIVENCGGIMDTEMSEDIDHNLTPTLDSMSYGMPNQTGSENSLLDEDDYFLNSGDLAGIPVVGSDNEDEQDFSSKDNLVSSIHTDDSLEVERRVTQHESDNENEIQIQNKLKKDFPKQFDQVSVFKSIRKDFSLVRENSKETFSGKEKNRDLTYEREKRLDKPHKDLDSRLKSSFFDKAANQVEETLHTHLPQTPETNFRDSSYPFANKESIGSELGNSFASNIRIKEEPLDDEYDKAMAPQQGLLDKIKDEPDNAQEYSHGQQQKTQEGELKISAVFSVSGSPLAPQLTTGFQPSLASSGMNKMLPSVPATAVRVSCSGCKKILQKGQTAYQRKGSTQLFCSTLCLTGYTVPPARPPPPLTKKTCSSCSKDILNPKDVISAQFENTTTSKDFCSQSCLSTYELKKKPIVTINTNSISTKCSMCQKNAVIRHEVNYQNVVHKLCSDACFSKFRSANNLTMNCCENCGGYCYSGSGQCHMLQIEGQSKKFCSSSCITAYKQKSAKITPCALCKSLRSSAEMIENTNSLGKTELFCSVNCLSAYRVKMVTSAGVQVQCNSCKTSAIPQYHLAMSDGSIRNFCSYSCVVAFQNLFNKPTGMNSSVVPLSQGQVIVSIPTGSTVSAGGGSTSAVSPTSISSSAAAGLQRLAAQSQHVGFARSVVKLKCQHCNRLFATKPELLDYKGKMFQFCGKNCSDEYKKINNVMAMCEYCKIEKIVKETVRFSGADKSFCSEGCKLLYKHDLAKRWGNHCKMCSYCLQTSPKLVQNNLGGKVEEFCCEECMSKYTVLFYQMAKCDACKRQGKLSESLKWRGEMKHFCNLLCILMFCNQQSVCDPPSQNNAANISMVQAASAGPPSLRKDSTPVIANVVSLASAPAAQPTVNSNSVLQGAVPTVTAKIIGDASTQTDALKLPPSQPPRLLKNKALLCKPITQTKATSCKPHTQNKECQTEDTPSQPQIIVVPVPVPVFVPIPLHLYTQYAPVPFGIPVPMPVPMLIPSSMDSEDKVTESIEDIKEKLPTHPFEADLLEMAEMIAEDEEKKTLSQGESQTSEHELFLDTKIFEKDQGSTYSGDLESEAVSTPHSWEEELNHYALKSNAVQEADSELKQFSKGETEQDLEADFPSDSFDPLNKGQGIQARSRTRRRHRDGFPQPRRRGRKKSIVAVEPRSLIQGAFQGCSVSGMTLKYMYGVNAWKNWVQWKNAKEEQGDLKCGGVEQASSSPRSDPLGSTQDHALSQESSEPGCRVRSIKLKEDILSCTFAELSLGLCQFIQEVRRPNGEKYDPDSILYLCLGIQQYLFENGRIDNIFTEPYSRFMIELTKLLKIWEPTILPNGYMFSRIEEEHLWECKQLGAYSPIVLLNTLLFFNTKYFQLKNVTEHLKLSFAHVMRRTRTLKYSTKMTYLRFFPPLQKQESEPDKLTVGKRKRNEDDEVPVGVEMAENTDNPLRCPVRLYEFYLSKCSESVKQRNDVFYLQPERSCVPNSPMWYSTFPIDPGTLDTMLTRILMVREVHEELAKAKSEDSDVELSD
UniProt Q5VVQ6: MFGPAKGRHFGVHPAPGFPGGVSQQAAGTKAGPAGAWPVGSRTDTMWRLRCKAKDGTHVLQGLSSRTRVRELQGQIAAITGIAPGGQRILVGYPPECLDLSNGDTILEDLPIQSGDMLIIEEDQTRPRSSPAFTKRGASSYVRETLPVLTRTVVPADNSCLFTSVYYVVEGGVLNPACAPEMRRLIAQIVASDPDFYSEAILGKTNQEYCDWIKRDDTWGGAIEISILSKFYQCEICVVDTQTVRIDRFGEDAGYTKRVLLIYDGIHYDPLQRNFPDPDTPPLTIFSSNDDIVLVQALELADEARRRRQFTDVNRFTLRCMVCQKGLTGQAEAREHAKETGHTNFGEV
UniProt Q6EEV6: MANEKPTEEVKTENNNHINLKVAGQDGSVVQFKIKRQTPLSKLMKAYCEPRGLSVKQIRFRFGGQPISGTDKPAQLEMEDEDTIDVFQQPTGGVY

The other results are listed elsewhere or left out. Most values lie at the level of the controls, where differences are scatter.

Compound in this assay: Cc1nc(Nc2ncc(C(=O)Nc3c(C)cccc3Cl)s2)cc(N2CCN(CCO)CC2)n1 [dasatinib]
Briefly: log2 fold change of tryptic peptide abundance, ligand vs vehicle (limited proteolysis) (log2 ratio); higher = more trypsin-susceptible (destabilized). The settings on record: ligand concentration: 5 uM; sample: K562 cleared lysate.
For “KLHDC10 (peptide sequence: FIQSCPIIR, peptide start residue: 69) (UniProt Q6PID8)”, the log2 fold change worked out at 0.231.
Consider “NAIF1 (peptide sequence: HLLVNHFNAGVPLAAK, peptide start residue: 29) (UniProt Q69YI7)”, for which the log2 fold change is -0.218.
Turning to “UniProt Q659A1 (peptide sequence: ERNQIFHEVPLK, peptide start residue: 337)”, the log2 fold change came out at 0.591.
As to “CIAPIN1 (peptide sequence: EPVETAVDNNSK, peptide start residue: 97) (UniProt Q6FI81)”, the log2 fold change came to 0.382.
On to “UniProt Q6NT16 (peptide sequence: SQNILSTEEER, peptide start residue: 438)”, for which the log2 fold change was 0.137.
On to “PHLDB3 (peptide sequence: LQGQQLEALTR, peptide start residue: 101) (UniProt Q6NSJ2)”, for which the log2 fold change is -0.307.
Under “ZSCAN25 (peptide sequence: EAKPPQEDLK, peptide start residue: 276) (UniProt Q6NSZ9)” stands 0.55; under “BICRAL (peptide sequence: CLNQTSPISAPK, peptide start residue: 618) (UniProt Q6AI39)”, 0.386; under “SNRNP48 (peptide sequence: FVCDLTQADR, peptide start residue: 152) (UniProt Q6IEG0)”, 0.0999.
Under “SIGIRR (peptide sequence: SSEVDVSDLGSR, peptide start residue: 382) (UniProt Q6IA17)” stands -0.11; under “UniProt Q6IQ55 (peptide sequence: GSGSLHHHSASTK, peptide start residue: 1218)”, 0.606.
Consider “ELMSAN1 (peptide sequence: QRPRPEPLIIPTK, peptide start residue: 602) (UniProt Q6PJG2)”, for which the log2 fold change was -0.132.
To “SPTY2D1 (peptide sequence: QATESHTSQGTDR, peptide start residue: 109) (UniProt Q68D10)” belongs 0.93; to “NIPBL (peptide sequence: NLYNNILSDKNSSVNLK, peptide start residue: 2214) (UniProt Q6KC79)”, 0.407.
To “HIBCH (peptide sequence: SLGSSDLKF, peptide start residue: 378) (UniProt Q6NVY1)” belongs 0.224.
“MTHFD1L (peptide sequence: SRFQFLYDVQVPIVDKIR, peptide start residue: 853) (UniProt Q6UB35)”: the log2 fold change is -0.272.
As for “PDE12 (peptide sequence: YIMAGFPVCPK, peptide start residue: 172) (UniProt Q6L8Q7)”, the log2 fold change amounted to 0.434.
On to “TTC37 (peptide sequence: LLDLYESVDKQK, peptide start residue: 103) (UniProt Q6PGP7)”, for which the log2 fold change is 0.256.
As for “MYSM1 (peptide sequence: CGLDKETPNQK, peptide start residue: 169) (UniProt Q5VVJ2)”, the log2 fold change was 0.617.
Regarding “ATAD2 (peptide sequence: LITNTAEAVLQK, peptide start residue: 176) (UniProt Q6PL18)”, the log2 fold change was -0.33.
On to “UniProt Q68D86 (peptide sequence: EREMRTALEK, peptide start residue: 274)”, for which the log2 fold change was -0.128.
Consider “RINT1 (peptide sequence: MQLEEQVLTISSEIPKR, peptide start residue: 86) (UniProt Q6NUQ1)”, for which the log2 fold change was found to be 0.0753.
On to “NCBP2AS2 (peptide sequence: SGPPPGSQR, peptide start residue: 85) (UniProt Q69YL0)”, for which the log2 fold change stood at 0.188.
Take “SAMD1 (peptide sequence: TDVLTGLSIR, peptide start residue: 499) (UniProt Q6SPF0)”: the log2 fold change was -0.553.
Under “UniProt Q6PJP8 (peptide sequence: SGVLCSLEER, peptide start residue: 203)” stands 0.256.
On to “ZMYM4 (peptide sequence: DSSYPFANK, peptide start residue: 224) (UniProt Q5VZL5)”, for which the log2 fold change was -0.135.
In the case of “UniProt Q6IAA8 (peptide sequence: LAVLSSSLTHWK, peptide start residue: 92)”, the log2 fold change is -0.227.
Turning to “UniProt Q6NVV1 (peptide sequence: RMVVPAALKVVR, peptide start residue: 117)”, the log2 fold change is -0.798.
Turning to “UniProt Q68CL5 (peptide sequence: GPSGPSGPSTSSTSK, peptide start residue: 275)”, the log2 fold change is -0.309.
Take “LLGL2 (peptide sequence: KRHPAGPPGEAQEGSAK, peptide start residue: 666) (UniProt Q6P1M3)”: the log2 fold change was 0.575.
For the target “UniProt Q5VZ66 (peptide sequence: EQLQAEVQR, peptide start residue: 537)”, the log2 fold change came to 0.15.
With “ZFYVE26 (peptide sequence: RIDHVLLNADGIR, peptide start residue: 1009) (UniProt Q68DK2)”, the log2 fold change is 0.516.
For the target “YOD1 (peptide sequence: AGPAGAWPVGSR, peptide start residue: 31) (UniProt Q5VVQ6)”, the log2 fold change was -0.503.
As for “UniProt Q5VTT5 (peptide sequence: HGDEPKELK, peptide start residue: 1427)”, the log2 fold change came out at 0.0804.
On to “LARP2 (peptide sequence: VDPPISDEFGR, peptide start residue: 848) (UniProt Q659C4)”, for which the log2 fold change was 0.233.
With “ZNF746 (peptide sequence: MLHTGERPFPCTECEKR, peptide start residue: 530) (UniProt Q6NUN9)”, the log2 fold change is -0.815.
On to “UniProt Q6EEV6 (peptide sequence: VAGQDGSVVQFK, peptide start residue: 22)”, for which the log2 fold change was found to be 0.0461.
